Key:
[1] = Fluorescence titration of compound 1 with Cu^2+ (Stern-Volmer plot, detection limit); format: binding
Protocol: All of the absorption and emission studies were carried out in mixed aqueous solutions of water and methanol (4:1) containing HEPES buffer (10 mM, pH 7.4) at a concentration of 20 μM and 0.2 μM respectively. Emission studies were carried out by addition of 10 equiv of various biologically and non-biologically relevant metal cations to an aqueous-MeOH (4:1) solution of compound 1 at a concentration level of 0.2 μM and their complexation abilities were studies by fluorescence. […] Importantly, none of the other cations induced any such distinct emission shift or quenching (FIG. 7). […] Fluorescence titration of compound 1 with Cu^2+ was carried out in aqueous MeOH (4:1) solution at a concentration level of 0.2 μM. The addition of Cu^2+ to the solution of compound 1 caused a complete quenching of the fluorescent emission and the peak at 525 nm (Φ=0.32) is “switched off” when excited at 502 nm (FIG. 9). […]
Thus, it can be assumed that the quenching of the fluorescence of compound 1 by Cu^2+ ion is a static quenching mode due to the formation of a non-fluorescent complex in the ground state. […] From the Stern-Volmer linear plot (FIG. 14) the binding constant of compound 1 with Cu^2+ was calculated to be 1.0×10^7 L·mol^−1 (error limits≤10%).

[2] = Selectivity and tolerance study, fluorescence with different metal cations; settings: 0.2 μM compound
Protocol: All of the absorption and emission studies were carried out in mixed aqueous solutions of water and methanol (4:1) containing HEPES buffer (10 mM, pH 7.4) at a concentration of 20 μM and 0.2 μM respectively. Emission studies were carried out by addition of 10 equiv of various biologically and non-biologically relevant metal cations to an aqueous-MeOH (4:1) solution of compound 1 at a concentration level of 0.2 μM and their complexation abilities were studies by fluorescence. […] Importantly, none of the other cations induced any such distinct emission shift or quenching (FIG. 7). […] Fluorescence titration of compound 1 with Cu^2+ was carried out in aqueous MeOH (4:1) solution at a concentration level of 0.2 μM. The addition of Cu^2+ to the solution of compound 1 caused a complete quenching of the fluorescent emission and the peak at 525 nm (Φ=0.32) is “switched off” when excited at 502 nm (FIG. 9).
To evaluate the selectivity and tolerance of compound 1 for Cu^2+ over other metal cations, 10 equiv of the different metal cations were added to a 0.2 μM solution of compound 1. In the case of Cu^2+, the molecular fluorescence is quenched to a maximum level and therefore a high molecular sensitivity is attained. […] Fluorescent sensors for and with transition metals; John Wiley & Sons Ltd: Chichester, 1999. —incorporated herein by reference in its entirety]. […]

In the case of `Cn1ccnc1/C=N/N1C(=O)c2ccccc2C12c1ccc(O)cc1Oc1cc(O)ccc12` [compound 1, Fluorescein-N-methylimidazole conjugate], the “fluorescence quantum yield Φ of emission peak at 525 nm” value ([1]; 0.2 μM, excited at 502 nm, aqueous MeOH (4:1)) was 0.32, the “detection limit for Cu^2+” value ([1]; fluorescence, H2O:MeOH (4:1), HEPES 10 mM, pH 7.4, λex=502 nm) was 0.037 µM and the “fluorescence quenching by metal ions other than Cu^2+” value ([2]; 10 equiv of metal cation) was “no appreciable quenching”. For the same compound, the “interference of other metal ions with the quenching by Cu^2+ (competitive binding)” value ([2]; other metal ions 10.0 equiv, Cu^2+ 1.0 equiv) was “did not interfere”.
